Results taken from patent publication US20090043129A1 (priority 2005, published 2009).
Some entries share one result that the patent states for a list of compounds.

By UniProt entry, the sequences of proteins in these tests, tags left out.
UniProt P21554, whole entry: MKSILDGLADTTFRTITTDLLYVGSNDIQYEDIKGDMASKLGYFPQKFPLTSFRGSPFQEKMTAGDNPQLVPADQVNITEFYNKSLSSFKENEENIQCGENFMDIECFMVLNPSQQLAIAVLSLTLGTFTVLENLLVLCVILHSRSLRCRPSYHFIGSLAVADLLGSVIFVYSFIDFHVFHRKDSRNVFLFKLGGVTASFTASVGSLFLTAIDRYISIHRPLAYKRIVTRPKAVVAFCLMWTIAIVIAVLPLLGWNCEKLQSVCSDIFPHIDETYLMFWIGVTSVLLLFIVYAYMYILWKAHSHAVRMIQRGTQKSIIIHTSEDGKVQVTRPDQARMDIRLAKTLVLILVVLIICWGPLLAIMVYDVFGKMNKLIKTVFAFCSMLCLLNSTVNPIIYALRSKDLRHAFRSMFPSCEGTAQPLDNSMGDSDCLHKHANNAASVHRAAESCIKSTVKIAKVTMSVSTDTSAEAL

Columns and labels:
[1] = Solubility in solvents used in bond studies; type: physicochemical; conditions: solvents used in bond studies (DMSO, ethanol or methanol)
[2] = target: human recombinant CB1 receptor (Homo sapiens, UniProt P21554); type: binding; design: purchased Perkin-Elmer; host or cells: COS cells; conditions: CB1 and CB2 receptors

| SMILES | solubility (in words) [1] | affinity for the cannabinoid receptors (in words) [2] |
| --- | --- | --- |
| CCCCCCCCCCCCCCCc1cccc(OCCCCCCCCCCC(=O)NCCO)c1 [Compound 18, 11-(3-Pentadecyl-phenoxy)-undecanoic acid (2-hydroxy-ethyl)-amide] | insoluble |  |
| CCCCCCCCCCCCCCCc1cccc(OCCCCCCCCCCC(=O)NC2CC2)c1 [Compound 19, 11-(3-Pentadecyl-phenoxy)-undecanoic acid cyclopropylamide] | insoluble |  |
| CCCCCCCCCCCCCCCc1cccc(OCCCCCCCCCCC(=O)Nc2ccc(O)cc2)c1 [Compound 20, 11-(3-Pentadecyl-phenoxy)-undecanoic acid (4-hydroxy-phenyl)-amide] | insoluble |  |
| O=C(CCCCCOc1cccc(O)c1)NCCO [Compound 30, 6-(3-Hydroxy-phenoxy)-hexanoic acid (2-hydroxy-ethyl)-amide] |  | inactive |
| O=C(CCCCCOc1cccc(O)c1)NC1CC1 [Compound 31, 6-(3-Hydroxy-phenoxy)-hexanoic acid cyclopropylamide] |  | inactive |
| O=C(CCCCCOc1cccc(O)c1)Nc1ccc(O)cc1 [Compound 32, 6-(3-Hydroxy-phenoxy)-hexanoic acid (4-hydroxy-phenyl)-amide] |  | inactive |
| O=C(CCCCCCCCCCOc1cccc(O)c1)NCCO [Compound 33, 11-(3-Hydroxy-phenoxy)-undecanoic acid (2-hydroxy-ethyl)-amide] |  | inactive |
| O=C(CCCCCCCCCCOc1cccc(O)c1)NC1CC1 [Compound 34, 11-(3-Hydroxy-phenoxy)-undecanoic acid cyclopropilamide] |  | inactive |
| O=C(CCCCCCCCCCOc1cccc(O)c1)Nc1ccc(O)cc1 [Compound 35, 11-(3-Hydroxy-phenoxy)-undecanoic acid (4-hydroxy-phenyl)-amide] |  | inactive |
| O=C(CCCCCCCCCCCCCCCOc1cccc(O)c1)NCCO [Compound 36, 16-(3-Hydroxy-phenoxy)-hexadecanoic acid (2-hydroxy-ethyl)-amide] |  | inactive |
| O=C(CCCCCCCCCCCCCCCOc1cccc(O)c1)NC1CC1 [Compound 37, 16-(3-Hydroxy-phenoxy)-hexadecanoic acid cyclopropylamide] |  | inactive |
| O=C(CCCCCCCCCCCCCCCOc1cccc(O)c1)Nc1ccc(O)cc1 [Compound 38, 16-(3-Hydroxy-phenoxy)-hexadecanoic acid (4-hydroxy-phenyl)-amide] |  | inactive |
